Experimental data published in patent US11666671B2, “Spatial mapping of kidney functions” (Northwestern University, priority 2018, dated 2023).
Some results were stated once for a whole list of compounds, not compound by compound.

Assay: Conventional renal scintigraphy (renogram) with radionuclide-bound tracers (FIG. 1)

O=C(O)CN[C](=O)[Tc][NH]C(=O)CNC(=O)CS [^99mTc MAG3, ^99mTc Mercaptoacetyltriglycine]
time for tracer to filter through the kidney and into the bladder: less than 20 minutes
